Experimental data taken from patent US20250296961A1, “ANTIMICROBIAL PEPTIDES FOR REMINERALIZATION OF TEETH AND PREVENTION OF DENTAL CARIES” (The University of Hong Kong, priority 2021, published 2025).
Read-outs that look alike come from different tables or passages of the source. Not every detail of the peptide structures is certain; ends, links or a residue may be inferred. Residues, ends and D or L forms follow the SMILES beside them. No end group written: not given here.

Key:
S. mutans [1] = assay: Anti-planktonic bacterial ability, MBC (Example 2); type: cell-based, S. mutans (ATCC 35668)
Procedure: (§1) S. mutans (ATCC 35668, ATCC, Manassas, USA), S. gordonii (ATCC 35105, ATCC, Manassas, USA), and S. sanguinis (ATCC 10556, ATCC, Manassas, USA) strains were cultured in brain-heart infusion broth (BHI, Difco Laboratories, Detroit, USA) at 37° C. under anaerobic conditions (85% N2, 10% H2, and 5% CO2). Bacteria were harvested by centrifugation (5000 rpm, 10 min), washed once with sodium phosphate-buffered saline (PBS, 10 mM, pH=7.2), and resuspended in BHI at a concentration of 1×10^6 CFU mL^−1.
(§2) Each well was seeded with 10 μL S. mutans suspension, S. gordonii suspension, and S. sanguinis suspension, respectively. […] The bacterial growth was assessed by measuring the absorbance at 595 nm using a microplate reader after a 24-hour incubation. Subsequently, 10 μL of bacterial suspension from each well were plated on horse blood agar plates and incubated at 37° C. for 48 h. The antibacterial activities of AMPs were evaluated.

S. gordonii = assay: Anti-planktonic bacterial ability, MBC (Example 2); type: cell-based, S. gordonii (ATCC 35105)
Procedure: as §1, §2

S. sanguinis = assay: Anti-planktonic bacterial ability, MBC (Example 2); type: cell-based, S. sanguinis (ATCC 10556)
Procedure: as §1, §2

S. mutans [2] = assay: 24 h growth curve of S. mutans in ½×MBC of AMPs; type: cell-based, S. mutans (ATCC 35668)
S. mutans biofilms [3] = type: cell-based, S. mutans (ATCC 35668)
[4] = General properties of peptides in HEPES; type: physicochemical
[5] = Remineralization assay of peptides (Example 2; FE-SEM, Vicker's hardness); set-up: species or system human; conditions: summary grade; MBC
S. mutans [6] = assay: Demineralization assay in the artificial caries model (MicroCT); type: cell-based; conditions: MBC
[7] = Adsorption capacity assay: peptides with HA particles (Micro BCA); type: binding
Procedure: The adsorption of P-113, P-113-DPS, P-113-DA, and P-113-SK to HA particles (Sigma Chemical Co., St Louis, USA) was measured using the Micro BCA method with Sp-H5 as the control group. Solutions of P-113, P-113-DPS, P-113-DA, P-113-SK and Sp-H5 in 10 mM HEPES buffer (pH 7) were diluted to 10 nmol/mL concentrations, and 200 μL was placed into each tube (P-113, N=10; P-113-DPS, N=10; P-113-DA, N=10; P-113-SK, N=10; and Sp-H5, N=10). Peptide solutions were mixed with (n=5) or without (n=5) HA particles (20 mg/tube) in each group. Tubes were placed onto a rotator overnight at 37° C. for complete reaction. Tubes containing the peptide solution and HA were centrifuged (13000 rpm, 1 min) and the supernatant collected. Bovine serum albumin (BSA) standard solutions (working range=5-250 μg/mL) and working reagent were prepared using the Pierce BCA Protein Assay Kit (Rockford, IL, USA). Working reagents (100 μL/well) were added to a 96-well plate, followed by standard and peptide solutions (100 μL/well). The Plate was incubated in the dark for 30 min and the absorbance (562 nm) measured using a plate reader. The concentration (C) of the BSA standard solution was linear with the absorbance (A) at 562 nm. The function of C=a*A+b was determined (a and b as constants). The final concentration (the peptide solution mixed with HA) and the initial concentration (the peptide solution without HA) were computed using the function and the generated absorbance data of the peptide solution mixed with and without HA.

S. mutans [8] = assay: Anti-planktonic bacterial ability, MIC and MBC (Example 1); type: cell-based, Streptococcus mutans (ATCC 35668)
Procedure: (§3) Streptococcus mutans (ATCC 35668, ATCC, Manassas, USA) were cultured in Horse Blood Medium under anaerobic (85% N2, 10% H2, and 5% CO2) conditions at 37° C. Cells were harvested by centrifugation (5000 rpm, 10 min), washed once with 10 mM sodium phosphate-buffered saline (PBS, pH 7.2), and resuspended in brain-heart infusion broth (BHI, Difco Laboratories, Detroit, USA) at a concentration of 10^6 CFU/mL.
Two-fold serial dilutions (in 10 mM HEPES) of P-113, P-113-DPS, P-113-DA, P-113-SK, and Sp-H5 prepared in 25% BHI medium were pipetted into a 96-well cell culture plate at final concentrations from 0.125-128 μmol/mL [100 μL/well]. Each well was seeded with 10 μL bacterial suspension at a final concentration of 10^6 CFU/mL. Sp-H5 with bacterial cells and 25% BHI medium with and without bacterial cells in 10 mM HEPES buffer (pH 7) were used as the positive, negative, and blank control group, respectively. After a 24-h incubation, absorbance was measured at 595 nm using a microplate reader to assess cell growth. […] The minimal bactericidal concentration (MBC) was defined as the lowest concentration of peptide resulting in no colony formation on agar plates after incubation. 10 μL of cell suspension from each well were plated on horse blood agar plates and incubated at 37° C. for 48 h. All determinations were conducted in triplicate experiments.

S. mutans biofilms [9] = type: cell-based; conditions: 128 μmol/mL, 24 h exposure
Procedure: as §3
S. mutans biofilms were cultured on enamel working surfaces in a 96-well plate. Tooth slices (N=32) were autoclave-sterilized prior to anti-biofilm activity testing. 200 μL S. mutans in BHI (10^6 CFU/mL) was added to each well. After a 24-h incubation at 37° C., each tooth slice was washed once with PBS. […] (in 10 mM HEPES). After incubation, tooth slices were washed once with PBS. One tooth slice at random in each group was stained with the LIVE/DEAD BacLight Bacterial Viability Kit (L7012, Thermo Fisher Scientific, Waltham, USA) and incubated in the dark for 30 min. Fluorescence images were obtained using confocal laser scanning microscopy (CLSM, Fluoview 1000, Olympus, USA). A separate tooth slice was used for the counting of colony-forming units (CFU). Tooth slices were placed in 1 mL BHI solution, and adherent biofilms were removed from the enamel surfaces by sonication for 30 sec. Ten-fold serial dilutions of the suspensions were plated in duplicate on horse blood agar. CFU's were counted after 48-h incubation. Three independent biofilm experiments were performed.

[10] = Demineralization assay of peptide-coated enamel (Example 1); set-up: species or system human; conditions: demineralization solution 7 days
Procedure: (§4) 3×3×1.5 mm^3 (number: 197) tooth slices were prepared using a water-cooled diamond saw (IsoMet low-speed saw, Buehler, Lake Bluff, IL, USA). One working surface of complete enamel tissue from each tooth slice was generated using the MicroCT Skyscan 1172 (Bruker MicroCT, Kontich, Belgium). The enamel working side of the tooth slice was polished and other sides marked with acid-proof nail polish. All tooth slices were cleaned and stored in deionized water at 4° C.
Tooth slices (N=30) were immersed in 8 μmol/mL P-113, P-113-DPS, P-113-DA, P-113-SK, Sp-H5 (n=5 for each) solutions (in 10 mM HEPES) or HEPES (control) overnight. Tooth slices were incubated in 2 mL demineralization solution (2.2 mM CaCl2), 2.2 mM NaH2PO4, 0.05 M acetic acid, pH 4.5) for 7 days at 37° C. Lesions depths were analyzed by MicroCT Skyscan 1172. Mineral calcium (Ca) or phosphorus (P) concentrations before and after immersion were measured using Inductively Coupled Plasma Optical Emission Spectrometer (ICP-OES; Spectro Arcos, Kleve, Germany). Ca/P loss was expressed as mM/cm^2. The mean values of Ca/P loss were analyzed for each group using ANOVA at the 1% c significance level.

[11] = Remineralization assay of peptide-coated enamel (Example 1); set-up: species or system human; conditions: 8 μmol/mL coating, remineralization solution 24 h, FE-SEM
Procedure: as §4
The enamel working surface of tooth slices (N=30) was acid-etched in 37% phosphoric acid for 1 min and rinsed with deionized water for 1 min. The slices were immersed in 8 μmol/mL P-113, P-113-DPS, P-113-DA, P-113-SK, Sp-H5 (n=5 for each) solutions (in 10 mM HEPES) or HEPES (control) overnight. All tooth slices were incubated in 7 mL remineralization solution (2.58 mM CaCl2)·2H2O, 1.55 mM KH2PO4, 10 mg/L NaF, 180 mM NaCl, 50 mM Tris-HCl, pH 7.6) for 24 h. The enamel surface and cross-section morphology were analyzed by FE-SEM (Hitachi, S4800). Ca/P concentrations in the solutions before and after immersion were calculated by ICP-OES. The mean values for Ca/P gain were analyzed using ANOVA at the 1‰ significance level.

CC(C)C[C@H](NC(=O)[C@H](CCCNC(=N)N)NC(=O)[C@H](Cc1ccccc1)NC(=O)[C@H](Cc1ccccc1)NC(=O)[C@@H](NC(=O)[C@H](COP(=O)(O)O)NC(=O)[C@@H](N)COP(=O)(O)O)[C@@H](C)O)C(=O)N[C@@H](Cc1ccccc1)C(=O)N[C@@H](CC(N)=O)C(=O)N[C@@H](CCCNC(=N)N)C(=O)N[C@@H](C)C(=O)N[C@@H](CCCCN)C(=O)N[C@@H](CCCNC(=N)N)C(=O)N[C@@H](Cc1c[nH]cn1)C(=O)N[C@@H](Cc1c[nH]cn1)C(=O)NCC(=O)N[C@@H](Cc1ccc(O)cc1)C(=O)N[C@@H](CCCCN)C(=O)N[C@@H](CCCNC(=N)N)C(=O)N[C@@H](CCCCN)C(=O)N[C@@H](Cc1ccccc1)C(=O)N[C@@H](Cc1c[nH]cn1)C(=O)O [DPS-C8-P-113] (HELM PEPTIDE1{[N[C@@H](COP(=O)(O)O)C(=O)[*:2]].[O=C([C@H](COP(=O)(O)O)N[*:1])[*:2]].T.F.F.R.L.F.N.R.A.K.R.H.H.G.Y.K.R.K.F.H}$$$$V2.0)
MBC, S. mutans (S. mutans [1]): 0.25 μM mL^−1 | MBC, S. gordonii (S. gordonii): 4 μM mL^−1 | MBC, S. sanguinis (S. sanguinis): 2 μM mL^−1 | Effect on S. mutans growth (S. mutans [2]): inhibitory effect | Viability by CFU counts (biofilm) (S. mutans biofilms [3]; 4×MBC, 24 h): 9.16E+05 CFU mL^−1 | CLSM live/dead state of S. mutans biofilm (S. mutans biofilms [3]; 8×MBC and 16×MBC, 24 h): the majority of S. mutans were dead | Viability by CFU counts (biofilm) (S. mutans biofilms [3]; 8×MBC, 24 h): 4.38E+05 CFU mL^−1 | Viability by CFU counts (biofilm) (S. mutans biofilms [3]; 16×MBC, 24 h): 0 CFU mL^−1 | Anti-biofilm (effective concentration as multiple of MBC) (S. mutans biofilms [3]; S. mutans biofilm): (2 × × MBC | Anti-biofilm (effective concentration) (S. mutans biofilms [3]; S. mutans biofilm): 0.5 μM mL^−1 | Isoelectric point (pI) [4]: 12.15 | Appearance in HEPES ([4]; 1 μM mL^−1, pH=7): colourless transparent liquids | Appearance in HEPES ([4]; 16 μM mL^−1, pH=7, after 10 minutes of dissolving): white suspension | Promoting remineralization [5]: − | Lesion depth (mean) (S. mutans [6]; 7 days): 136.09±14.41 μm | Inhibiting demineralization in the artificial caries model (S. mutans [6]; summary grade): ++

AKRHHGYKRKFHSKHKGGKHKGGKHKG [Peptide P-113-SK]
Concentration change (95% CI) ([7]; initial vs final concentration with HA particles): 2.61 (2.05-3.47) | Final concentration (Mean ± SD) ([7]; peptide solution mixed with HA particles (20 mg/tube), overnight 37° C.): 7.71 ± 0.39 nM mL^−1 | MBC (S. mutans [8]): 64 μM mL^−1 | MIC (S. mutans [8]; 24 h): 32 μM mL^−1 | Viability counts of S. mutans biofilms (S. mutans biofilms [9]): 1.53E+05 CFU/mL | Maximum lesion depth ([10]; 8 μmol/mL coating, MicroCT): 100 μm | Ca losses vs control group [10]: Significant differences were not detected | Thickness of the regenerated crystal layer on the enamel surface [11]: 7 μm
